The results in this text go back to patent publication US11912777.

No constants are given. Whether binding was seen depends on the method and setting. Some binding calls cover weakened binding; strength is not graded here.

Experiment [1] addresses Cynomolgus TNFR2, human Fc tag protein (cynomolgus). Description: ELISA, TNFR2-huFc coated (figure legend). In general terms: In an ELISA, binding on a coated surface is turned into a signal by an enzyme label.
The target in experiment [2] is Human TNFR2, human Fc tag protein (human). Kind of experiment: ELISA, TNFR2-huFc coated (figure legend).
In experiment [3] the target is human TNFR2, mouse Fc-tag (human). Description: ELISA on coated human TNFR2-mFc; left panel [b].
The target of experiment [4] is Human TNFR2, human Fc tag protein (human). Kind of experiment: ELISA on coated huTNFR2-huFc; top panel.
The target in experiment [5] is human TNFR2, mouse Fc-tag (human). Kind of experiment: blocking ELISA: hTNFR2-mFc binding to coated TNF-alpha his tag; right panel [a].
The target in experiment [6] is Human TNFR2, human Fc tag protein (human). Description: ELISA on coated huTNFR2-huFc; middle panel.
For experiment [7], the target named is human TNFR2, mouse Fc-tag (human). Description: ELISA on coated human TNFR2-mFc; left panel [a].
Experiment [8] has the same target. Kind of experiment: blocking ELISA: hTNFR2-mFc binding to coated TNF-alpha his tag; right panel [b].

B1: chimeric antibody 43B7A4 (antibody, human IgG1, kappa, V domains shown)
VH: QIQLVQSGPELKKPGETVKISCKASGYTFTTYGMSWVKQAPGKGLKWMGWIHTYSGVPTYADDFKGRFAFSLETSASTAFLQINNLKNEDTATYFCARGLYGVDYWGQGTTLTVSS
VL: NIVMTQSPKSMSMSVGERVTLSCKASENVVTYVSWYQQKPEQSPKLLIYGASNRYTGVPDRFTGSGSATDFTLTISSVQAEDLADYHCGQSYTYPYTFGGGTTLEIKR
For the molecule B1, the binding entry in experiment [1] and in experiment [2] was “binds” throughout.

B2: negative control IgG (antibody, V domains shown)
VH: QVQLVESGGGAVQPGRSLRLSCAASGFTFSSYGMHWVRQAPGKGLEWVAVILYDGSDKFYADSVKGRFTISRDNSKNTLYLQMNSLRAEDTAVYYCAKVAVAGTHFDYWGQGTLVTVSS
VL: DIQMTQSPSSLSASVGDRVTITCRASQGIRNDLGWYQQKPGKAPKLLIYAASSLQSGVPSRFSGSGSGTDFTLTISSLQPEDFATYYCQQLNSYPPTFGGGTKVEIKR
Take B2: the binding result is reported as “no binding (tested: about 3 nM)” in experiment [3]; “no binding (tested: about 3 nM)” in experiment [4]; “no binding (tested: about 7 nM)” in experiment [5]; “no binding (tested: about 3 nM)” in experiment [6]; “no binding (tested: about 3 nM)” in experiment [7]; “no binding (tested: about 7 nM)” in experiment [8].
